Experimental data as given in patent US9271929B2, “Block copolymers and uses thereof” (École Polytechnique Fédérale de Lausanne (EPFL), priority 2008, dated 2016).
At least one compound was matched to its structure with a doubt left.

Test: Encapsulation efficiency of small molecule pharmaceutical agents using excipient formulations
Assay type: physicochemical
Conditions: PEG-PPS system
Description: Samples used in Table 2 were prepared as follows. 10 mg of PEG-PPS was added to a 1.5 mL centrifuge tube with either 90 mg of PEG600 or DBU-HCl, and 2 mg of either paclitaxel or dexamethasone. This was heated at 95° C. for 15 min and mixed thoroughly. After cooling to RT, the blend was slowly diluted to 1 mL with distilled water. The free pharmaceutical agent was pelleted via centrifugation for 10 minutes at 10,000 g, and the pellet and supernatant were separately freeze dried, and analyzed in THF via gel permeation chromatography. Dexamethasone and paclitaxel results were quantified using a standard curve.

| Compound | Encapsulation, method of the invention versus solvent dispersion |
| --- | --- |
| C[C@@H]1C[C@H]2[C@@H]3CCC4=CC(=O)C=C[C@]4(C)[C@@]3(F)[C@@H](O)C[C@]2(C)[C@@]1(O)C(=O)CO [Dexamethasone, dexamethasone] | more efficiently encapsulated via solvent dispersion |
| CO[C@H]1C[C@@H]2CC[C@@H](C)[C@@](O)(O2)C(=O)C(=O)N2CCCC[C@H]2C(=O)O[C@H]([C@H](C)C[C@@H]2CC[C@@H](O)[C@H](OC)C2)CC(=O)[C@H](C)/C=C(\C)[C@@H](O)[C@@H](OC)C(=O)[C@H](C)C[C@H](C)/C=C/C=C/C=C/1C [sirolimus] | efficiently encapsulated |
